Results as given in patent US20230139516A1.
Results are given in words; binding and its absence hold for the method and conditions named. Binding seen in cells or lysates may run through a third protein. Some entries that bind do so weakly or less than the wild type.

The chains behind the UniProt entries cited, without tags or fusion partners. Residues count along the entry.
UniProt P49327: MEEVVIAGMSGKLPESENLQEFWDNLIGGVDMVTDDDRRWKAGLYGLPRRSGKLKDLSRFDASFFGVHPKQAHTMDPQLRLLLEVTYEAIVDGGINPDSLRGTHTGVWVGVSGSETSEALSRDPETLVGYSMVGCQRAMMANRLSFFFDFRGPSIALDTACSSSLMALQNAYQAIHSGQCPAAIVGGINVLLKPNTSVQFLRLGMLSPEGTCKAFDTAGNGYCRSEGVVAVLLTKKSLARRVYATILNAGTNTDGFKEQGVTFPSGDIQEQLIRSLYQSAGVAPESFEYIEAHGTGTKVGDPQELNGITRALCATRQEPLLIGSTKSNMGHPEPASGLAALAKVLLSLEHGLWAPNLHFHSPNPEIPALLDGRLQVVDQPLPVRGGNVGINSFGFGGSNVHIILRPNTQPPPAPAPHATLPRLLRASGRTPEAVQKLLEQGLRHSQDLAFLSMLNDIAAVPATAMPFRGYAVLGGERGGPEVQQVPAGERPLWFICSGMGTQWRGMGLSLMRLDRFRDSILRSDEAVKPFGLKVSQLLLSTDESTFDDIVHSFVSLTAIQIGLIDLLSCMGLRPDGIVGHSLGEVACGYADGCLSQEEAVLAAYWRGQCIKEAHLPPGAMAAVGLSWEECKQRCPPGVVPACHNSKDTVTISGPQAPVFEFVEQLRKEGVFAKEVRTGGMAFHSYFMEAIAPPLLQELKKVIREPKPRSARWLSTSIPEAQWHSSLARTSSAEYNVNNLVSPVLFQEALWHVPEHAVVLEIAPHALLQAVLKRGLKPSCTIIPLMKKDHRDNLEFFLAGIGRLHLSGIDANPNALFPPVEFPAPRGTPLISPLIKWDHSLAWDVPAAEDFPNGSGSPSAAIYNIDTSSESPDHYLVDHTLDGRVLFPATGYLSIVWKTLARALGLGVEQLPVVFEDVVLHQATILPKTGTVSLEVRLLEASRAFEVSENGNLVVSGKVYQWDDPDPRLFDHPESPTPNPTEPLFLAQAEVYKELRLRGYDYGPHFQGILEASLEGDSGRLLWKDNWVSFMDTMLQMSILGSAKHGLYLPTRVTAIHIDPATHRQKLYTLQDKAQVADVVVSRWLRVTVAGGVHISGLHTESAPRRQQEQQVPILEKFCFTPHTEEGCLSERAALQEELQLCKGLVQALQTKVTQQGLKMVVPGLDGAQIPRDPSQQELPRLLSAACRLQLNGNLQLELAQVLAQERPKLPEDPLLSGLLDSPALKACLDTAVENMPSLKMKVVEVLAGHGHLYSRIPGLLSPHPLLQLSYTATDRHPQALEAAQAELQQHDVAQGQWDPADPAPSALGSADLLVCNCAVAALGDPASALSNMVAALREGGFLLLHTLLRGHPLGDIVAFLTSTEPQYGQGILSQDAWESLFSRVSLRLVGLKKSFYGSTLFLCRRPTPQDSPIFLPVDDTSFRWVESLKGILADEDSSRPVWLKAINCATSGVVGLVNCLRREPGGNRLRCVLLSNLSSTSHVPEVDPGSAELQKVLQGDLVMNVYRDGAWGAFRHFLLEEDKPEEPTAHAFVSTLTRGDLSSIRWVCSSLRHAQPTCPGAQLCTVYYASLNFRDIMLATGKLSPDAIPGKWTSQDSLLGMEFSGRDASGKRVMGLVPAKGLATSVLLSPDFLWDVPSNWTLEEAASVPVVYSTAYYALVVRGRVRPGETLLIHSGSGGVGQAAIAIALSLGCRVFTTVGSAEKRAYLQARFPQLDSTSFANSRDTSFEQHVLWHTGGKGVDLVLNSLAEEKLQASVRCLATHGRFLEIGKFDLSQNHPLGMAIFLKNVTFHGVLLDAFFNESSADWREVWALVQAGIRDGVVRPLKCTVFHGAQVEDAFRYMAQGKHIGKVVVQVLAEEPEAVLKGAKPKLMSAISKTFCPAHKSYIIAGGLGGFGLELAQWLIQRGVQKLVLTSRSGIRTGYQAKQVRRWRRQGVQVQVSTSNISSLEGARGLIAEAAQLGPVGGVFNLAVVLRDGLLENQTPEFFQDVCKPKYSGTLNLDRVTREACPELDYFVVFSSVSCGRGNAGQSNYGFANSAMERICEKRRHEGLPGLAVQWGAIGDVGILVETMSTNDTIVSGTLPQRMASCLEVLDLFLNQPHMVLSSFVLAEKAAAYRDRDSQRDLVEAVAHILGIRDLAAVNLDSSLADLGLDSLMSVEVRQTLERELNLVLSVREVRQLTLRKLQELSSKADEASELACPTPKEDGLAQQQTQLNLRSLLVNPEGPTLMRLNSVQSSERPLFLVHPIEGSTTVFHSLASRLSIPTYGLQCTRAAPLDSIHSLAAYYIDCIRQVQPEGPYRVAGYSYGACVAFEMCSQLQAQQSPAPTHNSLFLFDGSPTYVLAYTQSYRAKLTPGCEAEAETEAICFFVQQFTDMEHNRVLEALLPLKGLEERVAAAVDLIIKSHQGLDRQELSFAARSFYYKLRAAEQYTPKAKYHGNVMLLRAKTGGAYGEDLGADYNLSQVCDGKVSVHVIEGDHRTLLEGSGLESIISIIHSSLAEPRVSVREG
UniProt Q9P289, residues 2-416: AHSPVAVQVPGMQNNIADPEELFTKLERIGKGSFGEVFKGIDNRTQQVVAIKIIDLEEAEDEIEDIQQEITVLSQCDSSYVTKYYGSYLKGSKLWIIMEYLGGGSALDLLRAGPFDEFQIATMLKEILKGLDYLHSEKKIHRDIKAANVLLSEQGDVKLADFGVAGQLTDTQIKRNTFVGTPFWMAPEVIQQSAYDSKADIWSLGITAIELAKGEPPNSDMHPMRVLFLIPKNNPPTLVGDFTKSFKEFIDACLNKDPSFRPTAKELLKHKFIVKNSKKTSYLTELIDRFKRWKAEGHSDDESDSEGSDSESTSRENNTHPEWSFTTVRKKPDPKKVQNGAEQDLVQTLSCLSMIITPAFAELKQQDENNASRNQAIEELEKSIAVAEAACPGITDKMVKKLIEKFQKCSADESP
UniProt O14980: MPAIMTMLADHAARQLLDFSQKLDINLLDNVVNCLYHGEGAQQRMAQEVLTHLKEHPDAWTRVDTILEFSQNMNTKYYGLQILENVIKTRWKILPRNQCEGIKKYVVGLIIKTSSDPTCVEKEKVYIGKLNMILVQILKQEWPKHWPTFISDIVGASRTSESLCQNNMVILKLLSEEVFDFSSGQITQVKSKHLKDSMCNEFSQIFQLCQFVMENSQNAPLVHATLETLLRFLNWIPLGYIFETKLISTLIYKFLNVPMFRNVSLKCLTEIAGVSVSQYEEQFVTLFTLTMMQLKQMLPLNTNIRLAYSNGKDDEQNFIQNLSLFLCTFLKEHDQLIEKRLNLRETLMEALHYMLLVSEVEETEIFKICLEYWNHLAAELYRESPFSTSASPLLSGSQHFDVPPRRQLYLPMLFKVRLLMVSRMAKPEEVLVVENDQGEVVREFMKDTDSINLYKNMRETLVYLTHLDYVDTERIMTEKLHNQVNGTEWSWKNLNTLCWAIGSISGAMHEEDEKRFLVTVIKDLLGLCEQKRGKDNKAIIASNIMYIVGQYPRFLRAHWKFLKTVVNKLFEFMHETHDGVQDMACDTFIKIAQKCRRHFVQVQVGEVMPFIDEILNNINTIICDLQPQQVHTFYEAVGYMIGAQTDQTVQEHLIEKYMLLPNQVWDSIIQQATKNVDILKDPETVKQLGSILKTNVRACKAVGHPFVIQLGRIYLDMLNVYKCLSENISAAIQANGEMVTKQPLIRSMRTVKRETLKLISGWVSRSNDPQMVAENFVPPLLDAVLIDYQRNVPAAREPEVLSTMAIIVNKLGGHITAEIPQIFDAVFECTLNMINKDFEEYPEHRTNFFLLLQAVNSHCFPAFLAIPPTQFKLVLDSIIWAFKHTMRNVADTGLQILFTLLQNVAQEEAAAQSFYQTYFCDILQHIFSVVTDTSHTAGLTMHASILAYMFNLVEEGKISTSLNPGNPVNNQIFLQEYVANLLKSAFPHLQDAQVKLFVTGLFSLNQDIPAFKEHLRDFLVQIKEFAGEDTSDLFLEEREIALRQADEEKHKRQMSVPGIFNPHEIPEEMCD
UniProt Q14974: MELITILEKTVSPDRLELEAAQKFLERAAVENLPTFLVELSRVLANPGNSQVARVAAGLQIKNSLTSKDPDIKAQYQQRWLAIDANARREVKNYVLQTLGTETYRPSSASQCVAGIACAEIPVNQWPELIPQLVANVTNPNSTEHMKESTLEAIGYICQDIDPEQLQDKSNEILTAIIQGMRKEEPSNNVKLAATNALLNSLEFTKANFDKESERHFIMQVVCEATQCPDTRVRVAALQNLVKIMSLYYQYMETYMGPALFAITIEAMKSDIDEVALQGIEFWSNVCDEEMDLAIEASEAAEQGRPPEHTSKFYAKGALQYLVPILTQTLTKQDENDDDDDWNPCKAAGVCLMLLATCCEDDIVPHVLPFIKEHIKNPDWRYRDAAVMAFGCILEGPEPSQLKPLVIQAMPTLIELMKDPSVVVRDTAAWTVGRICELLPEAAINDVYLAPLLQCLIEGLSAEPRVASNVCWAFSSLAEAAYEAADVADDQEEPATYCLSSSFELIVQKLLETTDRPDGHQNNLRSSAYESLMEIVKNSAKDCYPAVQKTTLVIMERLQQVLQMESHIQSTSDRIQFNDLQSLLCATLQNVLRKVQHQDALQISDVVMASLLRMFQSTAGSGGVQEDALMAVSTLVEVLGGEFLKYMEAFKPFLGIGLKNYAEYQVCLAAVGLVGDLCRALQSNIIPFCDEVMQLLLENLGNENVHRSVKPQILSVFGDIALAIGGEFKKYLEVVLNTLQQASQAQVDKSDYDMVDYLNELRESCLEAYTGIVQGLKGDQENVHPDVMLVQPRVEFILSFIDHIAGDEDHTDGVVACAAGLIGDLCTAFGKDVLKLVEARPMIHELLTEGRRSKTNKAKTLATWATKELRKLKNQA
UniProt O43353: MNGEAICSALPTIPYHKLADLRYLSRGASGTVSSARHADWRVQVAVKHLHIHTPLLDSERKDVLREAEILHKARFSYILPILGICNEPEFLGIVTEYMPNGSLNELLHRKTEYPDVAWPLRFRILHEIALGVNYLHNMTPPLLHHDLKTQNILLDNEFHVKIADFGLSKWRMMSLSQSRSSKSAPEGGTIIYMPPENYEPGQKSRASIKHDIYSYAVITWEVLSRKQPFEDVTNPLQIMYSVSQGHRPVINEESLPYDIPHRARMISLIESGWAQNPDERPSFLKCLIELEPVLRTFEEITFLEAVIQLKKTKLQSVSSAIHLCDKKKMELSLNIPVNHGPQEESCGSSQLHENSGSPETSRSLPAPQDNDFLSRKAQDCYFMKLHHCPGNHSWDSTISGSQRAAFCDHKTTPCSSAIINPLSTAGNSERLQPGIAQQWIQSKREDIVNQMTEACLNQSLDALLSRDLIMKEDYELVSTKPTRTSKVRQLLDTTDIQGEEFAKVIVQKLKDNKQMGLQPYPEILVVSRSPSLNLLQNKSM

Experiments:
[1] = biological target: FASN (human) (UniProt P49327); test: IP-MS interactome analysis
[2] = biological target: MST4 (STK26) (human) (UniProt Q9P289); test: IP-MS interactome analysis
[3] = biological target: Exportin-1 (human) (UniProt O14980); test: IP-MS interactome analysis (FIG. 8)
[4] = biological target: FASN (human) (UniProt P49327); test: IP-MS interactome analysis (FIG. 8)
[5] = biological target: Importin β-1 (human) (UniProt Q14974); test: IP-MS interactome analysis (FIG. 8)

Measured: binding

3×FLAG-tagged RIPK2 (RIPK2m4 with C-terminal 3×FLAG tag) (from UniProt O43353 1-540) (enzyme)
binds: all assays above
